Values from PubChem BioAssay AID686937 (Drosophila RNAi Screening Center, 2013).
In all, the deposit lists about 23,000 reagents; below is an unselected part of those with a known target gene and a result. 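Reduced-secretion tags in replicate 1 do not always agree with the z-scores; no criterion for assigning the tags was given.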 The numbers tell different reagents against one gene apart. A plus sign joins genes that one reagent is predicted to hit. Not all columns of the deposit are shown. Not given: the amount of reagent.

Test: 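Knock-downs that reduce output of a secreted reporter enzyme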 (primary screen)
Cell system: Drosophila S2 cells expressing secreted horseradish peroxidase
Reagents: long dsRNA against Drosophila genes
Duration: about 5.5 days (5 days dsRNA, then 12 h reporter induction)
Conditions: reporter expression induced after 5 days of dsRNA, read 12 h later; inducer not stated
Detection: 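Chemiluminescent measurement of peroxidase in the medium 12 h after reporter induction, following 5 days of dsRNA, given as a z-score per plate; higher means more secretion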
Scale: z-score: higher = more reporter secreted into medium

predicted target | reagent | z-score, replicate 1
CG13131 | 1 | 0.07
CG14646 | 1 | 0.09
CG14646 | 2 | 0.04
spir | 1 | 0.42
CG13186 | 1 | 0.54
CG14007 | 1 | 0.35
LysX | 1 | 0.49
trem | 1 | 0.32
Manf | 1 | 0.35
CG11854 | 1 | 0.39
Rich | 1 | -0.02
Cpr12A | 1 | 0.41
Mic26-27 | 1 | 0.27
l(2)05714 | 1 | -0.31
PIG-O | 1 | 0.25
E(z) | 1 | 0.66
CG42633 | 1 | 0.2
Swt1 | 1 | 0.21
CG5835 | 1 | 0.36
ppk3 | 1 | 0.13
Adk2 | 1 | -0.12
CG42449 | 1 | 0.56
CG43149 | 1 | 0.78
CLIP-190 | 1 | 0.33
CG34234 + Dh44-R2 | 1 | 0.27
Invadolysin | 1 | 0.56
Cox17 | 1 | 0.33
CG11294 | 1 | 0.36
mod(mdg4) | 1 | 0.51
mod(mdg4) | 2 | 0.58
mod(mdg4) | 3 | -0.16
mod(mdg4) | 4 | 0.42
mod(mdg4) | 5 | 0.22
mod(mdg4) | 6 | 0.42
CheB38b | 1 | 0.93
CG42490 (retired record) | 1 | 0.48
Ets98B | 1 | 0.51
eIF3j | 1 | 0.17
CG10280 | 1 | 0.4
bou | 1 | 0.2
Usp32 | 1 | 0.13
CG31419 | 1 | 0.14
Cyp311a1 | 1 | 0.2
CG30043 | 1 | 0.15
CG42245 + MEP-1 | 1 | 0.75
CG42245 + MEP-1 | 2 | 0.26
CG42245 + MEP-1 | 3 | -0.62
GluRIA | 1 | 0.47
CG7342 | 1 | 0.39
Usp20-33 | 1 | 0.34
elav | 1 | -0.27
CG8701 | 1 | 0.26
CG33062 | 1 | 1.37
Ote | 1 | 0.29
CG18787 + CG18789 | 1 | 1.44
CG10055 | 1 | 0.13
NimC2 | 1 | 0.08
tra2 | 1 | 0.21
CG1791 | 1 | 0.53
Vm34Ca | 1 | -0.65
knk | 1 | 0.27
CG42390 | 1 | -0.39
Nubpl | 1 | 0.34
CG3149 | 1 | 0.34
Obp44a | 1 | 0.18
CG33627 | 1 | -0.04
PH4alphaSG2 | 1 | 0.2
nod | 1 | 0.17
nod | 2 | 0.22
CG14562 | 1 | 0.21
RalGPS | 1 | 0.3
Prosbeta2R1 | 1 | 0.19
CG6567 | 1 | 0.28
cpo | 1 | 0.25
cpo | 2 | -0.37
cpo | 3 | -2.71
cpo | 4 | -3.95
cpo | 5 | -2.81
ocn | 1 | 0.26
CG4151 | 1 | 0.28
Uba5 | 1 | 0.35
CYLD | 1 | 0.25

9 entries already listed, sorted by “z-score, replicate 1”, ascending:
predicted target | reagent | z-score, replicate 1
l(2)05714 | 1 | -0.31
Rich | 1 | -0.02
CG42633 | 1 | 0.2
Swt1 | 1 | 0.21
PIG-O | 1 | 0.25
Mic26-27 | 1 | 0.27
CG11854 | 1 | 0.39
Cpr12A | 1 | 0.41
E(z) | 1 | 0.66
